From the supplement of paper PMC10849652
The other results are listed elsewhere or left out.

Protein sequences, listed by entry. Tags and fused reporters are not part of them. Lines headed by an entry give the natural chain unless they say otherwise; changes in a name come on top.
UniProt Q9P2K8: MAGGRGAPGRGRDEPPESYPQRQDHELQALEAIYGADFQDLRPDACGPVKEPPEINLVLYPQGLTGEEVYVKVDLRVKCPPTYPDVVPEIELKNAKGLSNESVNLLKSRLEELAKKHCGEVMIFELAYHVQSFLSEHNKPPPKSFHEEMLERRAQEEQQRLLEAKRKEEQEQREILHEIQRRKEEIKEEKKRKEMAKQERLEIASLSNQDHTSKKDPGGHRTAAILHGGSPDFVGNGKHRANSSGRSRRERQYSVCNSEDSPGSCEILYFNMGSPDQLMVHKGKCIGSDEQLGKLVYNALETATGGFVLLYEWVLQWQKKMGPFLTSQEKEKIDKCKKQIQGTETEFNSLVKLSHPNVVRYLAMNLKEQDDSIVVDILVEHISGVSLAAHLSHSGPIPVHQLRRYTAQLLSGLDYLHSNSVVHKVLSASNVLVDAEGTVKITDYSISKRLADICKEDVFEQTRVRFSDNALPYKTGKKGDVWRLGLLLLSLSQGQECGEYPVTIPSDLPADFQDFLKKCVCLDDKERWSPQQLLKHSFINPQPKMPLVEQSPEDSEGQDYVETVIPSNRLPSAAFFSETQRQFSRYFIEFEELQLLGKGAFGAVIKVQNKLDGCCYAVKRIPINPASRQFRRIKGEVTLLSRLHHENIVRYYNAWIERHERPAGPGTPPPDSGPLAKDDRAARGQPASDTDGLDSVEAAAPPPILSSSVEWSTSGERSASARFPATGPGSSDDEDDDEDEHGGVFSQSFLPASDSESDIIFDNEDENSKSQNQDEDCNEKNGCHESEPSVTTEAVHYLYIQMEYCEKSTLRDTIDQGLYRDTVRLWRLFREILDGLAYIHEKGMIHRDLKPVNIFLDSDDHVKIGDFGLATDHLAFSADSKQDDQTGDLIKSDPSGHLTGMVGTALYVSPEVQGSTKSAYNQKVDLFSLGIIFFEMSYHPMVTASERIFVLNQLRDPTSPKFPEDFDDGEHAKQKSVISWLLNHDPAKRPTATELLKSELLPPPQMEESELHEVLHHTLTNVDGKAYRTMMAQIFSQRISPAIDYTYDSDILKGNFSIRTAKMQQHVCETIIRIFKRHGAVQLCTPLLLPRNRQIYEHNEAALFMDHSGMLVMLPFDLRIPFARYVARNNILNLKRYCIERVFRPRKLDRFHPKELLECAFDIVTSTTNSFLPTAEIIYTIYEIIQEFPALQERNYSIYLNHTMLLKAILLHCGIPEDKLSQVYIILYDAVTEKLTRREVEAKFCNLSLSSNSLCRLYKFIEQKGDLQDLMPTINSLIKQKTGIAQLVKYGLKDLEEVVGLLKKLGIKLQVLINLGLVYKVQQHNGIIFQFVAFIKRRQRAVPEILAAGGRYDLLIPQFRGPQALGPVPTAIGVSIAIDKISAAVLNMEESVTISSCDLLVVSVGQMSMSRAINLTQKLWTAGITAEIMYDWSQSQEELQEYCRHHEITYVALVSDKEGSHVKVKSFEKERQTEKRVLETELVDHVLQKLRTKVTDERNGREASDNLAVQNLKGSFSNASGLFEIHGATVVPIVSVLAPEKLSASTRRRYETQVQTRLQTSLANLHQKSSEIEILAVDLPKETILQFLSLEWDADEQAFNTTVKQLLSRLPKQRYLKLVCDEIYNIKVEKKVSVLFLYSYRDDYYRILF
UniProt Q9H5J4: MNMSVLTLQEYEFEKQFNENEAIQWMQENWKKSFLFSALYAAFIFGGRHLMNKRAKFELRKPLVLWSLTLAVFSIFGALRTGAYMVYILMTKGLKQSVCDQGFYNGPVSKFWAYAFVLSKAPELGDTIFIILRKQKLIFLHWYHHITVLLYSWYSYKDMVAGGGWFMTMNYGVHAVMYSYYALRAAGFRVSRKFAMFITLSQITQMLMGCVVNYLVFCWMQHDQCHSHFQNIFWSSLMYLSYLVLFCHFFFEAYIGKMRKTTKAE
UniProt O43768: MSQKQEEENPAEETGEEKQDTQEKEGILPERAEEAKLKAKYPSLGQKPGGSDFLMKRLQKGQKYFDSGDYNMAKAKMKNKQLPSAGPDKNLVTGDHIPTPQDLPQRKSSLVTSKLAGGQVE
UniProt O75354: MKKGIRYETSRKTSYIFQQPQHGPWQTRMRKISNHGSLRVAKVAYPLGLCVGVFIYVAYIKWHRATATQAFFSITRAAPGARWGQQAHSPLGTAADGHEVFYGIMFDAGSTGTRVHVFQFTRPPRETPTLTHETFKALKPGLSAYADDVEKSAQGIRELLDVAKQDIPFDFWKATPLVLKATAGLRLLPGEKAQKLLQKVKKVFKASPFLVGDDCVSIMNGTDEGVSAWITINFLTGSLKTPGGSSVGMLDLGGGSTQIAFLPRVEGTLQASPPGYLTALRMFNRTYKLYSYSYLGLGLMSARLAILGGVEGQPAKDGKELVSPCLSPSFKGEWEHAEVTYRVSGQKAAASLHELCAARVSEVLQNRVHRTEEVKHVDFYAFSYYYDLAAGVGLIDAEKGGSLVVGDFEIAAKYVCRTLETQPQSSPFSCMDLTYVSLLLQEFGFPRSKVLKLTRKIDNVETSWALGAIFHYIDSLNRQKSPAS
UniProt P38919, whole entry, looked up: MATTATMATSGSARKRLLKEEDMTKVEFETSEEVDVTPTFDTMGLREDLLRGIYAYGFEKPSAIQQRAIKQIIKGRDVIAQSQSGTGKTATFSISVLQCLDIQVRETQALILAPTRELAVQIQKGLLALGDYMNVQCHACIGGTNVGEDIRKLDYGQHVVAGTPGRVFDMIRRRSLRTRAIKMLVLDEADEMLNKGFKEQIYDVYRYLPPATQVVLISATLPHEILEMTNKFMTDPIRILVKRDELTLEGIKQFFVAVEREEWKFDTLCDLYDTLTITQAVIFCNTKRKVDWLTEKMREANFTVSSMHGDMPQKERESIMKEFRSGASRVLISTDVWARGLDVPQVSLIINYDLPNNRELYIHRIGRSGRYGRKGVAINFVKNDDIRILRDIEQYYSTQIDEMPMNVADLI
UniProt Q32P44: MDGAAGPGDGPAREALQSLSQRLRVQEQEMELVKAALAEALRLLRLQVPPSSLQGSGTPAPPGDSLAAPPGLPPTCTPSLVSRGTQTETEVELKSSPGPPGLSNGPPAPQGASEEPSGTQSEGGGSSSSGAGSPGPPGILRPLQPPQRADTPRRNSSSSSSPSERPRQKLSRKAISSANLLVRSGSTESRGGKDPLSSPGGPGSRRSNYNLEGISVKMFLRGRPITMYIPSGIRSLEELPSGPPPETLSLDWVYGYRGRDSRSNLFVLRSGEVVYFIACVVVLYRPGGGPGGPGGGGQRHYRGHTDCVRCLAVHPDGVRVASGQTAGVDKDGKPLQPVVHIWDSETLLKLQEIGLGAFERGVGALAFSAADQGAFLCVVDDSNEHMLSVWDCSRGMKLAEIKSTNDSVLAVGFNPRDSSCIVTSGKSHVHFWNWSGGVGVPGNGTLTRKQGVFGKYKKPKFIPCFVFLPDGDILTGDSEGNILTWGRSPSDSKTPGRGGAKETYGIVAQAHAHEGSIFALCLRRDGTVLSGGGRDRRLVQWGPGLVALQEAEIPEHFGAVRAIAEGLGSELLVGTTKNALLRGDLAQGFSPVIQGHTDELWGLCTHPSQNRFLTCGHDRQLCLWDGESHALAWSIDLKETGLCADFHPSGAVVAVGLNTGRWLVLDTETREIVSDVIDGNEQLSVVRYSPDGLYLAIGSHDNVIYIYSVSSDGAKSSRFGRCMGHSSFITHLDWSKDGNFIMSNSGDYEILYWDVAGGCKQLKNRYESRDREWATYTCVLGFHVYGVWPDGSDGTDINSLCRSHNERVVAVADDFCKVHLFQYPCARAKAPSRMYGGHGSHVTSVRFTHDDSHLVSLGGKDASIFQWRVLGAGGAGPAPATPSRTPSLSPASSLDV
UniProt Q05639, whole entry, looked up: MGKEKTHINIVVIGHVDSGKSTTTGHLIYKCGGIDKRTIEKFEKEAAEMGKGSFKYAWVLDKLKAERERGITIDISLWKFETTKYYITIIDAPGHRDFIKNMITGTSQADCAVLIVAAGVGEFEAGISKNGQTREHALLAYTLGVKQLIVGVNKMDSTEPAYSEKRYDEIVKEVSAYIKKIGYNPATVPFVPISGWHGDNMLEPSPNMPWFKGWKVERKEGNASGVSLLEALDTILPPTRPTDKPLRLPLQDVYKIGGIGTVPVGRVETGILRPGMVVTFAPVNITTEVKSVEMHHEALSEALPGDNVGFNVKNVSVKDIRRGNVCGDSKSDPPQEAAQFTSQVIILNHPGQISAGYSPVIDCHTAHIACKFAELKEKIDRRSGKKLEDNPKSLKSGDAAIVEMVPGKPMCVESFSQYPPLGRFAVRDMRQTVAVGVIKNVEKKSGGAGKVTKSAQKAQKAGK
UniProt P47813, whole entry, looked up: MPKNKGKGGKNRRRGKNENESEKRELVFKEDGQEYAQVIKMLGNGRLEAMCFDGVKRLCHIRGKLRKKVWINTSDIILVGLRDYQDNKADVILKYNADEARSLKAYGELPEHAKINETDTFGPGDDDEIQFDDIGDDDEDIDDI
UniProt Q9Y262, whole entry, looked up: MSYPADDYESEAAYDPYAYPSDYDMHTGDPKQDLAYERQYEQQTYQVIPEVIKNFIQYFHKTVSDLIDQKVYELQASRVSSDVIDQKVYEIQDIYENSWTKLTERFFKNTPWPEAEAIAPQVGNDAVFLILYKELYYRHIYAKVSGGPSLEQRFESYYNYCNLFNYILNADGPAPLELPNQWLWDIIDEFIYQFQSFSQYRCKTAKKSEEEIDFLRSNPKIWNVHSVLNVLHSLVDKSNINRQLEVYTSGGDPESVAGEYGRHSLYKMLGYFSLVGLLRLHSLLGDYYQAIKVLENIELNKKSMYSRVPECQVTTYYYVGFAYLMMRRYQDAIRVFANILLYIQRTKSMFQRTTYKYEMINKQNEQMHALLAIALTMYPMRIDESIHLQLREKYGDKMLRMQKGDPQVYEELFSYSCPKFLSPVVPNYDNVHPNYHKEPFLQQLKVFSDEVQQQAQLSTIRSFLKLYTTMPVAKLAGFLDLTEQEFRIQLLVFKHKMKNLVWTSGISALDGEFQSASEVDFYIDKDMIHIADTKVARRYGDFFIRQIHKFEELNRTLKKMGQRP
UniProt Q9H4M9: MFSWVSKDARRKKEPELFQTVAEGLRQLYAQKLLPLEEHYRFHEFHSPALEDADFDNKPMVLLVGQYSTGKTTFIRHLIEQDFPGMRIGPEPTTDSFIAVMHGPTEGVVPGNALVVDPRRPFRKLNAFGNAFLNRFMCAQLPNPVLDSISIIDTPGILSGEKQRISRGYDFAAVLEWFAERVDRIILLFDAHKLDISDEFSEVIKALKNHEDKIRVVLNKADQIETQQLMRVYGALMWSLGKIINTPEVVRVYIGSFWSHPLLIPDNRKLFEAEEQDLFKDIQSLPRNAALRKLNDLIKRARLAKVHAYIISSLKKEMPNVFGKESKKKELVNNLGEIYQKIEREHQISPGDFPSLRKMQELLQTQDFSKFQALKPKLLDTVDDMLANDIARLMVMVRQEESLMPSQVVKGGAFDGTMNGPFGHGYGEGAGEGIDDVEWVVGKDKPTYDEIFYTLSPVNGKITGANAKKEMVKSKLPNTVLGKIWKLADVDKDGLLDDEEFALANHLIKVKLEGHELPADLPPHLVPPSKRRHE
UniProt P98172: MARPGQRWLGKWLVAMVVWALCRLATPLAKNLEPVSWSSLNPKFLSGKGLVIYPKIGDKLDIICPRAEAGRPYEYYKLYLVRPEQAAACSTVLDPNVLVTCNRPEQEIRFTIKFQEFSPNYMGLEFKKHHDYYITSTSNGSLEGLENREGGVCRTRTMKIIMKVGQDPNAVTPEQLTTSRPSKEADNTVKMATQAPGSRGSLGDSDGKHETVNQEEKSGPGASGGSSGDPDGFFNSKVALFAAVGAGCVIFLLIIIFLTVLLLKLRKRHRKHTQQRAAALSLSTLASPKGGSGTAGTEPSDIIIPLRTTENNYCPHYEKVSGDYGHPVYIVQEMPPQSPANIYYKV
UniProt P55199: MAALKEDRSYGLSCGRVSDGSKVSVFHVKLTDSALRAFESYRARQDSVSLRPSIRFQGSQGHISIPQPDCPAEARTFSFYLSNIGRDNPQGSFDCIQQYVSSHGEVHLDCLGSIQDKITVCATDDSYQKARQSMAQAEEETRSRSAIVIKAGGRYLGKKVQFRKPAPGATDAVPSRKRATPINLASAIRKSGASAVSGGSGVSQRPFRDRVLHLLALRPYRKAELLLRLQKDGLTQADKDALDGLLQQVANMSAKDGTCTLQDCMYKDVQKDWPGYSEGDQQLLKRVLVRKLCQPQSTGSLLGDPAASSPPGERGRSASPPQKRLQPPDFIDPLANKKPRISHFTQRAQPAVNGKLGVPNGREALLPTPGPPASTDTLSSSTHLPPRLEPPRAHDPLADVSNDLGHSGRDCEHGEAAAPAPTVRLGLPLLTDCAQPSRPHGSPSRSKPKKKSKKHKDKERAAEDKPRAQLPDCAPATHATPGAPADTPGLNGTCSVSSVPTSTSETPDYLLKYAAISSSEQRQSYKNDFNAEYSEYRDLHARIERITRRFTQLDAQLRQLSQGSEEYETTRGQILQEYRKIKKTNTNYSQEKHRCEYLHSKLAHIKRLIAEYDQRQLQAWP

Experiments:
Assay in all cases: log2 fold change, soluble protein after heating vs DMSO (PISA); higher = thermal stabilisation; K562 cells, 10 uM, 30 min; active = over 0.2 and 3.5 SD of the protein, either way, in both replicates (recomputed)
saracatinib = compound: CN1CCN(CCOc2cc(OC3CCOCC3)c3c(Nc4c(Cl)ccc5c4OCO5)ncnc3c2)CC1 [saracatinib]
Summary of the method: (§1)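 For each measurement, 10 μM compound was applied for 30 min to K562 cells at 2×10^6 cells/mL. Aliquots were heated for 3 min across 48°C-58°C, pooled, and extracted in PBS with 0.5% NP-40 at 4°C; the supernatant after 21,000xg for 90 min was soluble protein. This was quantified by TMTpro 16plex LC-MS/MS with channel sums equalised, and thermal stability was reported relative to control samples from duplicates, on a log2 fold-change scale.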

sotrastaurin = compound: CN1CCN(c2nc(C3=C(c4c[nH]c5ccccc45)C(=O)NC3=O)c3ccccc3n2)CC1 [sotrastaurin]
Summary of the method: as §1

alvocidib = compound: CN1CC[C@H](c2c(O)cc(O)c3c(=O)cc(-c4ccccc4Cl)oc23)[C@H](O)C1 [alvocidib]
Summary of the method: as §1

Tubastatin A = compound: CN1CCc2c(c3ccccc3n2Cc2ccc(C(=O)NO)cc2)C1 [Tubastatin A]
Summary of the method: as §1

[1] = compound: CNC(=O)C1=CC=CC=C1NC2=NC(=NC=C2Cl)NC3=C(C=C(C=C3)N4CCOCC4)OC
Summary of the method: as §1

defactinib = compound: CNC(=O)c1ccc(Nc2ncc(C(F)(F)F)c(NCc3nccnc3N(C)S(C)(=O)=O)n2)cc1 [defactinib]
Summary of the method: as §1

rucaparib = compound: CNCc1ccc(-c2[nH]c3cc(F)cc4c3c2CCNC4=O)cc1 [rucaparib]
Summary of the method: as §1

[2] = compound: CNc1nc(-c2ccc3c(N)n[nH]c3c2)cc(N2C[C@@H](C(=O)NC3CCCCC3)CC[C@H]2C)n1
Summary of the method: as §1

encorafenib = compound: COC(=O)N[C@@H](C)CNc1nccc(-c2cn(C(C)C)nc2-c2cc(Cl)cc(NS(C)(=O)=O)c2F)n1 [encorafenib]
Summary of the method: as §1

[3] = compound: COC(=O)[C@H](CCSC)NC(=O)C1=C(C=C(C=C1)NC[C@H](CS)N)C2=CC=CC=C2
Summary of the method: as §1

[4] = compound: COC1=CC=C(C=C1)CN2C=CC3=C2C=C(C=C3)C(=O)NO
Summary of the method: as §1

filanesib = compound: CON(C)C(=O)N1N=C(c2cc(F)ccc2F)S[C@@]1(CCCN)c1ccccc1 [filanesib]
Summary of the method: as §1

zotarolimus = compound: CO[C@H]1C[C@@H]2CC[C@@H](C)[C@@](O)(O2)C(=O)C(=O)N2CCCC[C@H]2C(=O)O[C@H]([C@H](C)C[C@@H]2CC[C@H](n3cnnn3)[C@H](OC)C2)CC(=O)[C@H](C)/C=C(\C)[C@@H](O)[C@@H](OC)C(=O)[C@H](C)C[C@H](C)/C=C/C=C/C=C/1C [zotarolimus]
Summary of the method: as §1

idasanutlin = compound: COc1cc(C(=O)O)ccc1NC(=O)[C@@H]1N[C@@H](CC(C)(C)C)[C@](C#N)(c2ccc(Cl)cc2F)[C@H]1c1cccc(Cl)c1F [idasanutlin]
Summary of the method: as §1

alisertib = compound: COc1cc(Nc2ncc3c(n2)-c2ccc(Cl)cc2C(c2c(F)cccc2OC)=NC3)ccc1C(=O)O [alisertib]
Summary of the method: as §1

[5] = compound: COc1cc2nc(-c3cc(F)ccc3O)nc(N[C@@H]3CNC[C@H]3C(C)(C)O)c2cc1OC
Summary of the method: as §1

gefitinib = compound: COc1cc2ncnc(Nc3ccc(F)c(Cl)c3)c2cc1OCCCN1CCOCC1 [gefitinib]
Summary of the method: as §1

[6] = compound: COc1cccc2cc(-c3nc([C@H]4CC[C@H](C(=O)O)CC4)n4ncnc(N)c34)[nH]c12
Summary of the method: as §1

lapatinib = compound: CS(=O)(=O)CCNCc1ccc(-c2ccc3ncnc(Nc4ccc(OCc5cccc(F)c5)c(Cl)c4)c3c2)o1 [lapatinib]
Summary of the method: as §1

pictilisib = compound: CS(=O)(=O)N1CCN(Cc2cc3nc(-c4cccc5[nH]ncc45)nc(N4CCOCC4)c3s2)CC1 [pictilisib]
Summary of the method: as §1

Measured: log2 fold change

EMC1 (UniProt Q8N766)
inactive: saracatinib 0.045 | sotrastaurin 0.01 | alvocidib -0.015 | Tubastatin A 0 | [1] 0.013 | defactinib -0.028 | rucaparib -0.02 | [2] -0.015 | encorafenib 0.056 | [3] -0.018 | [4] -0.005 | filanesib -0.047 | zotarolimus 0.007 | idasanutlin -0.045 | alisertib -0.037 | [5] 0.014 | gefitinib 0.013 | [6] 0.022 | lapatinib 0.028 | pictilisib -0.038

EIF3C (UniProt Q99613)
inactive: saracatinib -0.12 | sotrastaurin -0.287 | alvocidib 0.05 | Tubastatin A 0.125 | [1] 0.08 | defactinib -0.027 | rucaparib 0.205 | [2] 0.069 | encorafenib 0.157 | [3] -0.108 | [4] 0.088 | filanesib 0.069 | zotarolimus 0.057 | idasanutlin 0.007 | alisertib -0.057 | [5] 0.047 | gefitinib 0.019 | [6] -0.181 | lapatinib -0.012 | pictilisib -0.008

EIF2AK4 (UniProt Q9P2K8)
inactive: saracatinib -0.045 | sotrastaurin -0.104 | alvocidib -0.068 | Tubastatin A -0.056 | [1] -0.218 | defactinib -0.087 | rucaparib 0.125 | [2] -0.002 | encorafenib 0.096 | [3] -0.036 | [4] -0.105 | filanesib 0.043 | zotarolimus -0.049 | idasanutlin 0.218 | alisertib 0.112 | [5] -0.015 | gefitinib 0.005 | [6] 0.024 | lapatinib 0.015 | pictilisib 0.04

EIF6 (UniProt P56537)
inactive: saracatinib 0.05 | sotrastaurin 0.018 | alvocidib 0.059 | Tubastatin A -0.003 | [1] -0.031 | defactinib 0.04 | rucaparib 0.01 | [2] -0.03 | encorafenib -0.023 | [3] 0.051 | [4] 0.007 | filanesib -0.009 | zotarolimus -0.054 | idasanutlin 0.059 | alisertib -0.114 | [5] 0.054 | gefitinib 0.013 | [6] 0.014 | lapatinib -0.07 | pictilisib -0.017

EFEMP1 (UniProt Q12805)
inactive: saracatinib 0.015 | sotrastaurin 0.116 | alvocidib 0.212 | Tubastatin A -0.065 | [1] -0.117 | [2] -0.131 | [4] 0.048 | filanesib -0.047 | zotarolimus -0.314 | idasanutlin 0.155 | [5] -0.071 | lapatinib -0.104 | pictilisib -0.329

ELOVL6 (UniProt Q9H5J4)
inactive: saracatinib 0.243 | sotrastaurin -0.011 | alvocidib -0.059 | Tubastatin A -0.047 | [1] -0.088 | defactinib -0.072 | rucaparib -0.014 | [2] 0.039 | encorafenib 0.105 | [3] 0.03 | [4] -0.322 | filanesib 0.172 | zotarolimus -0.022 | alisertib -0.046 | [5] -0.102 | gefitinib -0.046 | [6] -0.115 | lapatinib 0.085

ENSA isoform 3 (UniProt O43768)
inactive: saracatinib 0.009 | sotrastaurin 0.061 | alvocidib 0.012 | Tubastatin A -0.014 | [1] -0.029 | defactinib -0.028 | rucaparib 0.003 | [2] -0.027 | encorafenib -0.006 | [3] 0.022 | [4] -0.057 | filanesib -0.009 | zotarolimus -0.015 | idasanutlin 0.038 | alisertib -0.052 | [5] -0.009 | gefitinib 0.018 | [6] 0.051 | lapatinib -0.015 | pictilisib -0.006

Reprinted from above (four entries):
EIF6 (UniProt P56537)
inactive: saracatinib 0.05 | sotrastaurin 0.018 | alvocidib 0.059 | Tubastatin A -0.003 | [1] -0.031 | defactinib 0.04 | rucaparib 0.01 | [2] -0.03 | encorafenib -0.023 | [3] 0.051 | [4] 0.007 | filanesib -0.009 | zotarolimus -0.054 | idasanutlin 0.059 | alisertib -0.114 | [5] 0.054 | gefitinib 0.013 | [6] 0.014 | lapatinib -0.07 | pictilisib -0.017

EFEMP1 (UniProt Q12805)
inactive: saracatinib 0.015 | sotrastaurin 0.116 | alvocidib 0.212 | Tubastatin A -0.065 | [1] -0.117 | [2] -0.131 | [4] 0.048 | filanesib -0.047 | zotarolimus -0.314 | idasanutlin 0.155 | [5] -0.071 | lapatinib -0.104 | pictilisib -0.329

ELOVL6 (UniProt Q9H5J4)
inactive: saracatinib 0.243 | sotrastaurin -0.011 | alvocidib -0.059 | Tubastatin A -0.047 | [1] -0.088 | defactinib -0.072 | rucaparib -0.014 | [2] 0.039 | encorafenib 0.105 | [3] 0.03 | [4] -0.322 | filanesib 0.172 | zotarolimus -0.022 | alisertib -0.046 | [5] -0.102 | gefitinib -0.046 | [6] -0.115 | lapatinib 0.085

ENSA isoform 3 (UniProt O43768)
inactive: saracatinib 0.009 | sotrastaurin 0.061 | alvocidib 0.012 | Tubastatin A -0.014 | [1] -0.029 | defactinib -0.028 | rucaparib 0.003 | [2] -0.027 | encorafenib -0.006 | [3] 0.022 | [4] -0.057 | filanesib -0.009 | zotarolimus -0.015 | idasanutlin 0.038 | alisertib -0.052 | [5] -0.009 | gefitinib 0.018 | [6] 0.051 | lapatinib -0.015 | pictilisib -0.006

Continued:

ENTPD6 (UniProt O75354)
inactive: saracatinib -0.062 | sotrastaurin 0.068 | alvocidib 0.011 | Tubastatin A -0.029 | [1] 0.026 | rucaparib 0.068 | [2] 0.061 | encorafenib 0.044 | filanesib 0.227 | zotarolimus 0.104 | idasanutlin 0.025 | alisertib -0.176 | [5] -0.1 | gefitinib -0.033 | [6] -0.038 | lapatinib 0.127 | pictilisib 0.099

EIF4A3 (UniProt P38919)
inactive: saracatinib -0.041 | sotrastaurin 0.023 | alvocidib 0.037 | Tubastatin A -0.015 | [1] 0.033 | defactinib 0.006 | rucaparib -0.019 | [2] -0.011 | encorafenib 0.032 | [3] -0.001 | [4] -0.038 | filanesib 0.064 | zotarolimus -0.021 | idasanutlin -0.022 | alisertib -0.019 | [5] 0.084 | gefitinib 0.013 | [6] 0.023 | lapatinib -0.067 | pictilisib 0.131

EML3 isoform 2 (UniProt Q32P44)
inactive: saracatinib -0.066 | sotrastaurin 0 | alvocidib 0.063 | Tubastatin A 0.065 | [1] -0.012 | defactinib 0.032 | rucaparib -0.194 | [2] 0.015 | encorafenib 0.05 | [3] 0.013 | [4] 0.029 | filanesib 0.166 | zotarolimus -0.052 | idasanutlin 0.142 | alisertib -0.028 | [5] 0.035 | gefitinib 0.212 | [6] -0.048 | lapatinib 0.015 | pictilisib -0.112

EP300 (UniProt Q09472)
inactive: saracatinib 0.011 | sotrastaurin 0.039 | alvocidib -0.102 | Tubastatin A 0.043 | [1] -0.071 | defactinib -0.044 | rucaparib -0.021 | [2] 0.058 | encorafenib -0.038 | [3] -0.037 | [4] -0.104 | filanesib 0.061 | zotarolimus 0.03 | idasanutlin 0.019 | alisertib 0.041 | [5] 0.057 | gefitinib -0.01 | [6] 0.075 | lapatinib -0.009 | pictilisib -0.134

EEF1A2 (UniProt Q05639)
inactive: saracatinib -0.055 | sotrastaurin 0.031 | alvocidib -0.037 | Tubastatin A 0.01 | [1] -0.035 | defactinib 0.012 | rucaparib -0.056 | [2] 0.005 | encorafenib 0 | [3] 0.021 | [4] -0.015 | filanesib -0.082 | zotarolimus 0.004 | idasanutlin -0.08 | alisertib -0.021 | [5] 0.038 | gefitinib 0.005 | [6] 0.036 | lapatinib -0.048 | pictilisib 0.04

EIF1AX (UniProt P47813)
inactive: saracatinib 0.007 | sotrastaurin 0.014 | alvocidib 0.019 | Tubastatin A -0.025 | [1] 0.545 | defactinib -0.003 | rucaparib -0.093 | [2] 0.011 | encorafenib 0.014 | [3] 0.003 | [4] 0.026 | filanesib -0.051 | zotarolimus 0.012 | idasanutlin -0.036 | alisertib -0.045 | [5] -0.101 | gefitinib -0.029 | [6] 0.008 | lapatinib 0.027 | pictilisib 0

EIF3L (UniProt Q9Y262)
inactive: saracatinib -0.002 | sotrastaurin -0.017 | alvocidib -0.062 | Tubastatin A -0.011 | [1] -0.05 | defactinib -0.047 | rucaparib 0.008 | [2] 0 | encorafenib -0.007 | [3] 0.008 | [4] -0.013 | filanesib -0.084 | zotarolimus 0.027 | idasanutlin -0.055 | alisertib -0.068 | [5] 0.019 | gefitinib -0.018 | [6] 0 | lapatinib -0.025 | pictilisib 0.025

EHD1 (UniProt Q9H4M9)
inactive: saracatinib 0.004 | sotrastaurin 0 | alvocidib -0.039 | Tubastatin A 0.018 | [1] -0.011 | defactinib -0.044 | rucaparib -0.045 | [2] -0.055 | encorafenib 0.01 | [3] -0.024 | [4] -0.007 | filanesib -0.063 | zotarolimus 0.016 | idasanutlin -0.074 | alisertib -0.058 | [5] 0 | gefitinib -0.017 | [6] 0.026 | lapatinib -0.021 | pictilisib -0.033

EFNB1 (UniProt P98172)
inactive: saracatinib -0.156 | sotrastaurin -0.242 | alvocidib -0.158 | Tubastatin A -0.049 | [1] -0.004 | defactinib -0.085 | rucaparib -0.107 | [2] 0 | encorafenib -0.029 | [3] 0.009 | [4] -0.008 | filanesib -0.229 | zotarolimus -0.124 | idasanutlin 0.058 | alisertib -0.097 | [5] 0.015 | gefitinib 0.19 | [6] 0.003 | lapatinib -0.049 | pictilisib 0.099

ELL (UniProt P55199)
inactive: saracatinib -0.006 | sotrastaurin -0.272 | alvocidib 0.011 | Tubastatin A 0.055 | [1] -0.124 | rucaparib 0.033 | [2] 0.001 | encorafenib 0.128 | filanesib 0.065 | zotarolimus -0.016 | idasanutlin 0.042 | gefitinib 0.094 | pictilisib -0.015
